Reference: paper PMC6513553
Where two headings read alike, the source gives them in different places. Results are given in words; binding and its absence hold for the method and conditions named. Binding seen in cells or lysates may run through a third protein. Some results given as binding are weak or reduced against the parent protein; the word gives no strength. For part of these data: Where a sequence is shown, tags or fusion partners need not be part of it. Blank lines part the entries; values can stand above or below the molecule they belong to.

By UniProt entry, the sequences of proteins in these tests, tags left out.
UniProt P83949: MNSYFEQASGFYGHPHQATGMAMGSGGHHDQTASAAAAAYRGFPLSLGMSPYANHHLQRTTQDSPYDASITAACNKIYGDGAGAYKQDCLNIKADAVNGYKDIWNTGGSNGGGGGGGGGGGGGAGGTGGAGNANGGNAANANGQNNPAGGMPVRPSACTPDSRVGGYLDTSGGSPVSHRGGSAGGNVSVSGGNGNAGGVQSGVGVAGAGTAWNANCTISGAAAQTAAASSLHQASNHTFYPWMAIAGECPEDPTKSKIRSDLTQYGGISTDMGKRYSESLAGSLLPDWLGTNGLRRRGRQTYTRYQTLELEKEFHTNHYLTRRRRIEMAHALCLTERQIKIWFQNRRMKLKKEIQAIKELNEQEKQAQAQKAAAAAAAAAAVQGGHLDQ
UniProt Q8ST83: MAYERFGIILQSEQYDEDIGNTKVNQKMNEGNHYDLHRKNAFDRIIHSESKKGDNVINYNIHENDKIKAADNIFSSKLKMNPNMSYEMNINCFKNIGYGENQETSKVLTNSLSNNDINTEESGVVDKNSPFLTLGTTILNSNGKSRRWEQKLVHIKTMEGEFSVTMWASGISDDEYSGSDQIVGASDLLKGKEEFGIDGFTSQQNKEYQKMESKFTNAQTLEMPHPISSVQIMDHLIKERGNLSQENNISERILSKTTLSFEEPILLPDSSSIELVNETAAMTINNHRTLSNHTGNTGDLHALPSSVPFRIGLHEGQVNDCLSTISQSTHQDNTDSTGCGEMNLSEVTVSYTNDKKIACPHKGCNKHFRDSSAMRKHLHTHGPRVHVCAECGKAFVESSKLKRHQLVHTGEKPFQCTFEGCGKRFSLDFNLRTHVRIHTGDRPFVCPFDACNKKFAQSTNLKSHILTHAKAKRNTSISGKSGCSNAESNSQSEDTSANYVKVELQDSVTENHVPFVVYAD

Assays:
[1] = molecular target: endogenous GFP-Ubx fusion protein (Drosophila (endogenous locus, in embryos)) (UniProt P83949); test: co-IP; nuclear extract of embryos fixed with 3.2% formaldehyde, sonicated and treated with Benzonase; 4 to 5 mg of nuclear lysate in NP40 buffer incubated overnight with GFP-Trap beads; 5 washes; Western blot; w1118 embryos as control
GFP-Ubx WT (Drosophila) [2] = molecular target: GFP-Ubx WT (Drosophila) (UniProt P83949); test: co-IP; S2R+ Drosophila cells co-transfected; lysate in NP40 buffer (20 mM Tris pH7.5, 150 mM NaCl, 2 mM EDTA, 1% NP40); 1 to 1.5 mg of proteins incubated 3 hr with GFP-Trap beads; 3 washes; Western blot
GFP-Ubx WT (Drosophila) [3] = molecular target: GFP-Ubx WT (Drosophila) (UniProt P83949); test: as above; remark: listed apart in the source

binding [1]: binds weakly
Molecule: Pleiohomeotic (Pho), endogenous (from UniProt Q8ST83 1-520)

binding (GFP-Ubx WT (Drosophila) [2]): binds weakly
Molecule: HA-Pho (from UniProt Q8ST83 1-520)

binding (GFP-Ubx WT (Drosophila) [3]): binds
B1: HA-Trl (protein, UniProt Q08605 1-582)
chain: MSLPMNSLYSLTWGDYGTSLVSAIQLLRCHGDLVDCTLAAGGRSFPAHKIVLCAASPFLLDLLKNTPCKHPVVMLAGVNANDLEALLEFVYRGEVSVDHAQLPSLLQAAQCLNIQGLAPQTVTKDDYTTHSIQLQHMIPQHHDQDQLIATIATAPQQTVHAQVVEDIHHQGQILQATTQTNAAGQQQTIVTTDAAKHDQAVIQAFLPARKRKPRVKKMSPTAPKISKVEGMDTIMGTPTSSHGSGSVQQVLGENGAEGQLLSSTPIIKSEGQKVETIVTMDPNNMIPVTSANAATGEITPAQGATGSSGGNTSGVLSTPKAKRAKHPPGTEKPRSRSQSEQPATCPICYAVIRQSRNLRRHLELRHFAKPGVKKEKKTTSGKKSSSGSSGSGSGALSSSGSVPQVQTVQSLHTLQGVQVKKDPDAQQQQQQQQQQQQQQQQQAMTVSGATGGQVQQQVQQVQQQVQQQQQQQQQQQQQLQHHQIIDSSGNITTATTSAQAAAAAQQQAAGQQQQLVAQSDGSESGAPLSIAQVQTLQGHQIIGNLNQVNITDFQQQQPQQQQQQQQQQQQQQQQQQQTQQTL
